Literature values as cited in publication PMC8133002, “Disruption of microtubule function in cultured human cells by a cytotoxic ruthenium(II) polypyridyl complex” (Chemical Science, 2019).
pIC50: −log10 of the molar value.

Tested on: MCF7
Design: method as in PMID 23590802
Details: cited from earlier work

CC(=O)O[C@H]1C(=O)[C@@]2(C)[C@H]([C@H](OC(=O)c3ccccc3)[C@]3(O)C[C@H](OC(=O)[C@H](O)[C@@H](NC(=O)c4ccccc4)c4ccccc4)C(C)=C1C3(C)C)[C@]1(OC(C)=O)CO[C@@H]1C[C@@H]2O [PTX, paclitaxel]
pIC50: 7.60
